These are yes or no findings as the source states them, for the method shown. Some entries that bind do so weakly or less than the wild type. Each block holds one molecule with its values, some of them ahead of it.
How the values were obtained:
[1] = target: T1, N-terminal region of human PALLD comprising Ig1 and Ig2 (amino acids 1-528) (human) (UniProt Q8WX93); assay: two-hybrid; cotransformation of pGBKT7 DNA-BD and pGADT7-AD constructs into the Y2H Gold yeast strain, spotted on SD/-Ade/-His/-Leu/-Trp/AbA/X-alpha-Gal plates, 3-4 d at 30°C
T1 sequence: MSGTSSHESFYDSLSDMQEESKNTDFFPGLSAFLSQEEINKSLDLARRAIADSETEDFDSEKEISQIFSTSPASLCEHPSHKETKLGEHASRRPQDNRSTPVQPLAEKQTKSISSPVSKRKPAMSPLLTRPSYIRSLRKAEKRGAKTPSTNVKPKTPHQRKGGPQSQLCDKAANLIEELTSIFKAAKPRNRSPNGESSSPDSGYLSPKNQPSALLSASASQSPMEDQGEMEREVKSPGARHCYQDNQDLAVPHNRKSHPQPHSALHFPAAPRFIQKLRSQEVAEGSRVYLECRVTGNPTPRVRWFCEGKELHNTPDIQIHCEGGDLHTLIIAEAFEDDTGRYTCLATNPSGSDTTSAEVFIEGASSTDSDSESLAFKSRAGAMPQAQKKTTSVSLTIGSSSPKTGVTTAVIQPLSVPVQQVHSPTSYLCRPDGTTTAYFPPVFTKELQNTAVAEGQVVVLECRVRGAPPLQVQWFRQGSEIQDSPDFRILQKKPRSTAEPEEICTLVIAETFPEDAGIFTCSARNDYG

Sequences of proteins named here, by UniProt entry; tags and fusion partners are left off.
UniProt Q15327: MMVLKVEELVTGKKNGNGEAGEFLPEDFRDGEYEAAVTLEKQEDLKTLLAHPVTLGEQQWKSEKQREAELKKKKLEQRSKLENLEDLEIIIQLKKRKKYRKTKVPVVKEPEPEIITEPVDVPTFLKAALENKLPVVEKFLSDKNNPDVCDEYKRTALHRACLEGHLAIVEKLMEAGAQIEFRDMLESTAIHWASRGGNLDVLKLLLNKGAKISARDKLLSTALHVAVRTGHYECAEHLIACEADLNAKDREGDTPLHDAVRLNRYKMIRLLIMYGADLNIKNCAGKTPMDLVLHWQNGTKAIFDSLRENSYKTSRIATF

[2] = target: T2, human MYPN N-term start-Ig2 (aa 1-522) (human) (UniProt Q86TC9); assay: as above
T2 sequence: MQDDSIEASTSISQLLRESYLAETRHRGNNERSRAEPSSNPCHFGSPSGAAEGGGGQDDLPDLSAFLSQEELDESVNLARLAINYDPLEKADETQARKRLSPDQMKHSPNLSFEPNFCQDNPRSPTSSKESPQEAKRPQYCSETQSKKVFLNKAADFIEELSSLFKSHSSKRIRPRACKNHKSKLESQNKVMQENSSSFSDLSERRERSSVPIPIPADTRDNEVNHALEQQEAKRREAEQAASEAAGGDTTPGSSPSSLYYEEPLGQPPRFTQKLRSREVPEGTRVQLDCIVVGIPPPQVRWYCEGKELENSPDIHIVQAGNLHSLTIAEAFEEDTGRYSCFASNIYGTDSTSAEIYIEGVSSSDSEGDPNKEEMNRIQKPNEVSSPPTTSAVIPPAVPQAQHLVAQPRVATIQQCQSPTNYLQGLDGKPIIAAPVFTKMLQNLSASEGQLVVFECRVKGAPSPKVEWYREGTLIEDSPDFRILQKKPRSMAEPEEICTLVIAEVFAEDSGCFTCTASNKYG

[3] = target: T1, N-terminal region of human PALLD comprising Ig1 and Ig2 (amino acids 1-528) (human); assay: two-hybrid; Matchmaker Gold yeast two-hybrid screening; bait PALLD aa 1-528 in pGBKT7 combined with a Mate & Plate Human Heart library; selection on SD/-Ade/-His/-Leu/-Trp/AbA, then X-alpha-Gal plates, 30°C

binding [1]: binds
Molecule: human CARP full-length (pGADT7-AD) (from UniProt Q15327 1-319)

binding [1]: binds | binding [2]: binds
B1: human FHOD1 aa 965-1052 (domain or fragment, UniProt Q9Y613 965-1052)
chain: PQAAREVRIMQFCHTLREFALEYRTCRERVLQQQQKQATYRERNKTRGRMITETEKFSGVAGEAPSNPSVPVAVSSGPGRGDADSHAS

binding [3]: binds
B2: human FHOD1 aa 965-1164 (the 200 C-terminal amino acid residues) (domain or fragment, UniProt Q9Y613 965-1164)
chain: PQAAREVRIMQFCHTLREFALEYRTCRERVLQQQQKQATYRERNKTRGRMITETEKFSGVAGEAPSNPSVPVAVSSGPGRGDADSHASMKSLLTSRPEDTTHNRRSRGMVQSSSPIMPTVGPSTASPEEPPGSSLPSDTSDEIMDLLVQSVTKSSPRALAARERKRSRGNRKSLRRTLKSGLGDDLVQALGLSKGPGLEV

Source: article PMC10069870
